{"source": "the supplement of paper PMC8728848", "binders": {"B1": {"name": "Epa11 (Candida glabrata) (protein)", "chain": "MGSSHHHHHHSSGLVPRGSHMASSNAPNYPVGCSPSVGTQLTPGLSLEVYAYPMDGNNGYCWNATYKDPEFPRSGYLKNKLLGKADGVVGPLNFLAKNKDCSPKVDTLPAGFNFPQPITVTNFTMVLFGYLAPKQSGKYTFKLLADDLLLLNLGATNAFDCCNREATKNNLGEFLAYNLWPNQDKNVTVYLEKGVYYPLRLFFNNRDGGSQLDFSYYFNDSPAPLTDFSGMFFSVPDGAECPARI"}}, "assay_in_all_cases": "glycan array binding signal (z-score within array); higher = stronger binding", "conditions_in_all_cases": "glycan notation: IUPAC condensed, linker removed", "key": {"[1]": {"target": "Gal(b1-4)GlcNAc(b1-3)GalNAc", "outline": "(§1)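 Arrays were curated from the Consortium for Functional Glycomics database, 3228 in total, and kept only where the protein sequence was available. Binding is expressed as a within-array Z-score. This score was averaged across arrays of the same protein sequence at different concentrations or buffers and across linkers, and negative values can be read as non-binding.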"}, "[2]": {"target": "Gal(b1-4)GlcNAc(b1-3)[Fuc(a1-3)GlcNAc(b1-6)]Gal(b1-4)Glc", "outline": "as §1"}, "[3]": {"target": "Gal(b1-4)GlcNAc(b1-3)[Gal(b1-4)GlcNAc(b1-6)]Gal(b1-4)GlcNAc", "outline": "as §1"}, "[4]": {"target": "Gal(b1-4)GlcNAc(b1-3)[GlcNAc(b1-6)]Gal(b1-4)GlcNAc", "outline": "as §1"}, "[5]": {"target": "Gal(b1-4)GlcNAc(b1-6)Gal(b1-4)GlcNAc", "outline": "as §1"}, "[6]": {"target": "Gal(b1-4)GlcNAc(b1-6)GalNAc", "outline": "as §1"}, "[7]": {"target": "Gal(b1-4)GlcNAc(b1-6)[Gal(b1-3)]GalNAc", "outline": "as §1"}, "[8]": {"target": "Gal(b1-4)GlcNAc(b1-6)[Gal(b1-4)GlcNAc(b1-3)]GalNAc", "outline": "as §1"}, "[9]": {"target": "Gal(b1-4)GlcNAc6P", "outline": "as §1"}, "[10]": {"target": "Gal(b1-6)Gal", "outline": "as §1"}, "[11]": {"target": "Gal3S(b1-3)GalNAc", "outline": "as §1"}, "[12]": {"target": "Gal3S(b1-3)GlcNAc", "outline": "as §1"}, "[13]": {"target": "Gal3S(b1-3)[Fuc(a1-4)]GlcNAc", "outline": "as §1"}, "[14]": {"target": "Gal3S(b1-4)Glc", "outline": "as §1"}, "[15]": {"target": "Gal3S(b1-4)Glc6S", "outline": "as §1"}, "[16]": {"target": "Gal3S(b1-4)GlcNAc", "outline": "as §1"}, "[17]": {"target": "Gal3S(b1-4)[Fuc(a1-3)]Glc6S", "outline": "as §1"}, "[18]": {"target": "Gal3S(b1-4)[Fuc(a1-3)]GlcNAc", "outline": "as §1"}, "[19]": {"target": "Gal3S(b1-4)[Fuc(a1-3)]GlcNAc6S", "outline": "as §1"}}, "note": "The other results are listed elsewhere or left out.", "data": [{"binder": "B1", "values": [{"measurement": "glycan array binding signal (z-score)", "setting": "[1]", "value": -0.351}, {"measurement": "glycan array binding signal (z-score)", "setting": "[2]", "value": 0.044}, {"measurement": "glycan array binding signal (z-score)", "setting": "[3]", "value": -0.256}, {"measurement": "glycan array binding signal (z-score)", "setting": "[4]", "value": -0.836}, {"measurement": "glycan array binding signal (z-score)", "setting": "[5]", "value": -0.439}, {"measurement": "glycan array binding signal (z-score)", "setting": "[6]", "value": -0.046}, {"measurement": "glycan array binding signal (z-score)", "setting": "[7]", "value": -0.438}, {"measurement": "glycan array binding signal (z-score)", "setting": "[8]", "value": -0.445}, {"measurement": "glycan array binding signal (z-score)", "setting": "[9]", "value": 0.14}, {"measurement": "glycan array binding signal (z-score)", "setting": "[10]", "value": -0.473}, {"measurement": "glycan array binding signal (z-score)", "setting": "[11]", "value": 0.337}, {"measurement": "glycan array binding signal (z-score)", "setting": "[12]", "value": -0.01}, {"measurement": "glycan array binding signal (z-score)", "setting": "[13]", "value": 0.441}, {"measurement": "glycan array binding signal (z-score)", "setting": "[14]", "value": 0.163}, {"measurement": "glycan array binding signal (z-score)", "setting": "[15]", "value": 0.304}, {"measurement": "glycan array binding signal (z-score)", "setting": "[16]", "value": -2.05}, {"measurement": "glycan array binding signal (z-score)", "setting": "[17]", "value": 1.71}, {"measurement": "glycan array binding signal (z-score)", "setting": "[18]", "value": 0.202}, {"measurement": "glycan array binding signal (z-score)", "setting": "[19]", "value": 0.25}]}]}
